{"source": "PubChem BioAssay AID602196 (INSERM, 2012)", "aim": "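Genes whose knock-down alters cisplatin killing of lung cancer cells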", "cell system": "human A549 lung cancer cells", "knock-down reagent": "siRNA pair against human genes", "time to read-out": "48 h transfection before cisplatin; time from cisplatin to read-out not stated", "conditions": "cisplatin at a dose killing half of control-siRNA cells; exact dose and duration not given", "read-out": "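Shift in cisplatin death relative to control siRNA, from -50 (all cells die) to +50 (no cells die); siRNAs harmful on their own scored 0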", "direction": "two-siRNA summed score (-2 to +2): higher = both siRNAs protect from cisplatin killing; -2 means both sensitise; mean protection from cisplatin (shift in death): higher = protection from cisplatin killing", "hit rule": "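Each siRNA scores 0 if harmful alone by LDH or WST-1, otherwise +1 if it reduces and -1 if it increases cisplatin killing; a gene is active when both siRNAs agree (sum +2 or -2)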", "meaning of the calls": "active = both siRNAs shift cisplatin killing the same way; inactive = no consistent shift, or siRNA harmful alone", "note": "The whole screen tested about 23,000 reagents; below is a part drawn at random. 455 of all reagents (2%) count as active. 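Active includes both protection and sensitisation; some change values fall well beyond the stated -50 to +50 range.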 The numbers tell different reagents against one gene apart. Not all columns of the deposit are shown. Not stated in the record: the amount of reagent."}
{"gene": "GIMAP8", "reagent no.": 1, "two-siRNA summed score (-2 to +2)": 1, "mean protection from cisplatin (shift in death) (%)": 11.7, "outcome": "inactive"}
{"gene": "RILP", "reagent no.": 1, "two-siRNA summed score (-2 to +2)": 0, "mean protection from cisplatin (shift in death) (%)": 19, "outcome": "inactive"}
{"gene": "LOC340096", "reagent no.": 1, "two-siRNA summed score (-2 to +2)": -1, "mean protection from cisplatin (shift in death) (%)": 1.9, "outcome": "inactive"}
{"gene": "COL6A5", "reagent no.": 1, "two-siRNA summed score (-2 to +2)": 1, "mean protection from cisplatin (shift in death) (%)": 13.2, "outcome": "inactive"}
{"gene": "ATN1", "reagent no.": 1, "two-siRNA summed score (-2 to +2)": 0, "mean protection from cisplatin (shift in death) (%)": -6.4, "outcome": "inactive"}
{"gene": "SMYD2", "reagent no.": 1, "two-siRNA summed score (-2 to +2)": 0, "mean protection from cisplatin (shift in death) (%)": 10.9, "outcome": "inactive"}
{"gene": "TEX12", "reagent no.": 1, "two-siRNA summed score (-2 to +2)": 0, "mean protection from cisplatin (shift in death) (%)": 2.6, "outcome": "inactive"}
{"gene": "DNAAF10", "reagent no.": 1, "two-siRNA summed score (-2 to +2)": 0, "mean protection from cisplatin (shift in death) (%)": -0.7, "outcome": "inactive"}
{"gene": "ABCB9", "reagent no.": 1, "two-siRNA summed score (-2 to +2)": -1, "mean protection from cisplatin (shift in death) (%)": -36.7, "outcome": "inactive"}
{"gene": "ZSWIM1", "reagent no.": 1, "two-siRNA summed score (-2 to +2)": 0, "mean protection from cisplatin (shift in death) (%)": 6.6, "outcome": "inactive"}
{"gene": "RBP1", "reagent no.": 1, "two-siRNA summed score (-2 to +2)": 1, "mean protection from cisplatin (shift in death) (%)": 2.7, "outcome": "inactive"}
{"gene": "ZFAND1", "reagent no.": 1, "two-siRNA summed score (-2 to +2)": 0, "mean protection from cisplatin (shift in death) (%)": 0.7, "outcome": "inactive"}
{"gene": "GNG8", "reagent no.": 1, "two-siRNA summed score (-2 to +2)": 0, "mean protection from cisplatin (shift in death) (%)": 19.6, "outcome": "inactive"}
{"gene": "LOC387805", "reagent no.": 1, "two-siRNA summed score (-2 to +2)": 0, "mean protection from cisplatin (shift in death) (%)": 5.8, "outcome": "inactive"}
{"gene": "CCN2", "reagent no.": 1, "two-siRNA summed score (-2 to +2)": -1, "mean protection from cisplatin (shift in death) (%)": 2.7, "outcome": "inactive"}
{"gene": "CITED2", "reagent no.": 1, "two-siRNA summed score (-2 to +2)": 0, "mean protection from cisplatin (shift in death) (%)": 0, "outcome": "inactive"}
{"gene": "BMERB1", "reagent no.": 1, "two-siRNA summed score (-2 to +2)": 0, "mean protection from cisplatin (shift in death) (%)": 4.3, "outcome": "inactive"}
{"gene": "MOGAT3", "reagent no.": 1, "two-siRNA summed score (-2 to +2)": 1, "mean protection from cisplatin (shift in death) (%)": 14.9, "outcome": "inactive"}
{"gene": "ST6GALNAC5", "reagent no.": 1, "two-siRNA summed score (-2 to +2)": 0, "mean protection from cisplatin (shift in death) (%)": -4.3, "outcome": "inactive"}
{"gene": "LOC440140", "reagent no.": 1, "two-siRNA summed score (-2 to +2)": 0, "mean protection from cisplatin (shift in death) (%)": 7.5, "outcome": "inactive"}
{"gene": "QSOX2", "reagent no.": 1, "two-siRNA summed score (-2 to +2)": 0, "mean protection from cisplatin (shift in death) (%)": 18.4, "outcome": "inactive"}
{"gene": "PHKG1", "reagent no.": 1, "two-siRNA summed score (-2 to +2)": 2, "mean protection from cisplatin (shift in death) (%)": 23.9, "outcome": "active"}
{"gene": "OR1S1", "reagent no.": 1, "two-siRNA summed score (-2 to +2)": 2, "mean protection from cisplatin (shift in death) (%)": 23, "outcome": "active"}
{"gene": "FLJ20719", "reagent no.": 1, "two-siRNA summed score (-2 to +2)": 0, "mean protection from cisplatin (shift in death) (%)": 13.8, "outcome": "inactive"}
{"gene": "ERFL", "reagent no.": 1, "two-siRNA summed score (-2 to +2)": 2, "mean protection from cisplatin (shift in death) (%)": 16.8, "outcome": "active"}
{"gene": "SRD5A2", "reagent no.": 1, "two-siRNA summed score (-2 to +2)": 0, "mean protection from cisplatin (shift in death) (%)": 5.1, "outcome": "inactive"}
{"gene": "SRD5A2", "reagent no.": 2, "two-siRNA summed score (-2 to +2)": 0, "mean protection from cisplatin (shift in death) (%)": 6.7, "outcome": "inactive"}
{"gene": "OR5K3", "reagent no.": 1, "two-siRNA summed score (-2 to +2)": 1, "mean protection from cisplatin (shift in death) (%)": 4.3, "outcome": "inactive"}
{"gene": "ZNF76", "reagent no.": 1, "two-siRNA summed score (-2 to +2)": 1, "mean protection from cisplatin (shift in death) (%)": 13.4, "outcome": "inactive"}
{"gene": "LOC345930", "reagent no.": 1, "two-siRNA summed score (-2 to +2)": 0, "mean protection from cisplatin (shift in death) (%)": 6.2, "outcome": "inactive"}
{"gene": "LOC284402", "reagent no.": 1, "two-siRNA summed score (-2 to +2)": 0, "mean protection from cisplatin (shift in death) (%)": -14.2, "outcome": "inactive"}

4 entries from above, reformatted:
| gene | reagent no. | two-siRNA summed score (-2 to +2) | mean protection from cisplatin (shift in death) (%) | outcome |
| --- | --- | --- | --- | --- |
| OR1S1 | 1 | 2 | 23 | active |
| FLJ20719 | 1 | 0 | 13.8 | inactive |
| ERFL | 1 | 2 | 16.8 | active |
| SRD5A2 | 1 | 0 | 5.1 | inactive |
